This is one part of the list.
Key:
Assay in all cases: log2 fold change, soluble protein after heating vs DMSO (PISA); higher = thermal stabilisation; K562 lysate, 10 uM; active = over 0.2 and 3.5 SD of the protein, either way, in both replicates (recomputed)
[1] = compound: NCC(=O)Nc1ccc(-n2nc(C(F)(F)F)cc2-c2ccc3c(ccc4ccccc43)c2)cc1
How it was run: (§1)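 Values give the log-two fold change in thermal stability against solvent controls, from duplicates. Crude K562 extract at 1 mg/mL protein, made by dounce homogenisation in PBS pH 7.4 with 1 mM MgCl2, was treated with 10 μM compound for 30 min. After 3 min heating across 48°C-58°C, aliquots were pooled, adjusted to 0.5% NP-40 at 4°C and centrifuged at 21,000xg for 90 min. The supernatant was measured by TMTpro 16plex LC-MS/MS with channel sums equalised.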

The chains behind the UniProt entries cited, without tags or fusion partners. Where a name states a change or a piece, a line headed by the entry shows the natural chain unless it says otherwise.
UniProt Q96C34: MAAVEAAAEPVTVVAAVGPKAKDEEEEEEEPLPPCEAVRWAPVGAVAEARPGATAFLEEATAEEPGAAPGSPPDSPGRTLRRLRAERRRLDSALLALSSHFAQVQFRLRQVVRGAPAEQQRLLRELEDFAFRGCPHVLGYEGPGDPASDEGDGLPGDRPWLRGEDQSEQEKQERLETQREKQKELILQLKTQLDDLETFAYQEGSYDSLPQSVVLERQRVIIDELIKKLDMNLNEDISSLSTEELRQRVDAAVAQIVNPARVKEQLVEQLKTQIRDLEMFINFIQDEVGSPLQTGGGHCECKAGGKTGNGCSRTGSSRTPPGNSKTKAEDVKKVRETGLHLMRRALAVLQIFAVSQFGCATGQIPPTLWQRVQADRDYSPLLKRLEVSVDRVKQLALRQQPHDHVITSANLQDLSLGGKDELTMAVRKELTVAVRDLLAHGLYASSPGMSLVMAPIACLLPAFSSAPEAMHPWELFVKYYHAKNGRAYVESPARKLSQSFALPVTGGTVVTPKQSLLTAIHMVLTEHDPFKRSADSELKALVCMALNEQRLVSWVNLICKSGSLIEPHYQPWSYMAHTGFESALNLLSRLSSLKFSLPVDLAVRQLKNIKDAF
UniProt Q86SG5: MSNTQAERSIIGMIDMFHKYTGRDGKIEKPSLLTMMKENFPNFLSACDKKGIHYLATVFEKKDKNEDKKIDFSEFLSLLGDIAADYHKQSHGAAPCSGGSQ
UniProt Q9BWD3: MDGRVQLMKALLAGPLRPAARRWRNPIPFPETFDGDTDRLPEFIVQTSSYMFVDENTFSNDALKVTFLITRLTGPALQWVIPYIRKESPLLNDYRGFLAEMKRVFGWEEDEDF
UniProt Q9Y265, whole entry, looked up: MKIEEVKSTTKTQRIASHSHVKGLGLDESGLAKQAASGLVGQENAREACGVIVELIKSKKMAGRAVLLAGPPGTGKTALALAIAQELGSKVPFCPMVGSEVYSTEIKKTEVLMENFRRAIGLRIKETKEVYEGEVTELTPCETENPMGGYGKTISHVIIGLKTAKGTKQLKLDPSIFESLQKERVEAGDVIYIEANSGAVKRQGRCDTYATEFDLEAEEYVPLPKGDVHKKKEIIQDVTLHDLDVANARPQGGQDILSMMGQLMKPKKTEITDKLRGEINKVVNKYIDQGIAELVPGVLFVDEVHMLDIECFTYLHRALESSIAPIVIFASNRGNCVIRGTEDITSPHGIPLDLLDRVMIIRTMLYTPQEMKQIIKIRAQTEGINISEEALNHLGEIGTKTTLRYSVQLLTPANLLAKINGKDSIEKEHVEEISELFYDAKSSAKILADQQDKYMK
UniProt P78345: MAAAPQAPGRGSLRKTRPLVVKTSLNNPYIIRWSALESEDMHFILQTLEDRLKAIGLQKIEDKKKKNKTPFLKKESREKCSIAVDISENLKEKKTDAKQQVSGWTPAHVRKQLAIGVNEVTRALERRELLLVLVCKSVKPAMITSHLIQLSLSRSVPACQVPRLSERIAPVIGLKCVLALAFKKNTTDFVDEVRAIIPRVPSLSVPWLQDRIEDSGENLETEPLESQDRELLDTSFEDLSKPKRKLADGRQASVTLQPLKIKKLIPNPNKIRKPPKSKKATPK
UniProt P31350, whole entry, looked up: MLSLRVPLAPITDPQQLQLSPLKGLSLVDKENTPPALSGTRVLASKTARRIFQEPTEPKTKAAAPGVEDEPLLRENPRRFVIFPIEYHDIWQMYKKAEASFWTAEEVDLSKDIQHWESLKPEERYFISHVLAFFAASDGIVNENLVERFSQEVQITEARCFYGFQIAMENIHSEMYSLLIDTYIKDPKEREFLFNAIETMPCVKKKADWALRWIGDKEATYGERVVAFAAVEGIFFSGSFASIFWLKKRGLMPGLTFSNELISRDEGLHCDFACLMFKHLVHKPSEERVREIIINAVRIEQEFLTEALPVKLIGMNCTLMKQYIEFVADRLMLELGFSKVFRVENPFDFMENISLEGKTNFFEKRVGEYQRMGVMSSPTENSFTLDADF
UniProt Q86WX3: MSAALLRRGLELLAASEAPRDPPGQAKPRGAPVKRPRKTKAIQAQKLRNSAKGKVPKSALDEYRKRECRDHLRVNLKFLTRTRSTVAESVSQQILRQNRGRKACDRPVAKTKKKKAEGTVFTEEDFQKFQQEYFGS
UniProt Q9UJJ7: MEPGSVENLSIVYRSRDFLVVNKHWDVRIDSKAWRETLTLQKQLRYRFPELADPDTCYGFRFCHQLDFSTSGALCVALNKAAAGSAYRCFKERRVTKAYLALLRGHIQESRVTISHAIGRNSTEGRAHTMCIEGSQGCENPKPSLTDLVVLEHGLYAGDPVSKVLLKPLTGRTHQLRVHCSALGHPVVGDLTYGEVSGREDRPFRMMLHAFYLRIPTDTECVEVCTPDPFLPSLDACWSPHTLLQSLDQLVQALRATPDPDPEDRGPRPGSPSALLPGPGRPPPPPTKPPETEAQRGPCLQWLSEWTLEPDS
UniProt Q9HCY8: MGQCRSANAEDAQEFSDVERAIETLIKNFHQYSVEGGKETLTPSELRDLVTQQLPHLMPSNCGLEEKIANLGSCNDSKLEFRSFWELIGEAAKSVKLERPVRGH
UniProt O75582, whole entry, looked up: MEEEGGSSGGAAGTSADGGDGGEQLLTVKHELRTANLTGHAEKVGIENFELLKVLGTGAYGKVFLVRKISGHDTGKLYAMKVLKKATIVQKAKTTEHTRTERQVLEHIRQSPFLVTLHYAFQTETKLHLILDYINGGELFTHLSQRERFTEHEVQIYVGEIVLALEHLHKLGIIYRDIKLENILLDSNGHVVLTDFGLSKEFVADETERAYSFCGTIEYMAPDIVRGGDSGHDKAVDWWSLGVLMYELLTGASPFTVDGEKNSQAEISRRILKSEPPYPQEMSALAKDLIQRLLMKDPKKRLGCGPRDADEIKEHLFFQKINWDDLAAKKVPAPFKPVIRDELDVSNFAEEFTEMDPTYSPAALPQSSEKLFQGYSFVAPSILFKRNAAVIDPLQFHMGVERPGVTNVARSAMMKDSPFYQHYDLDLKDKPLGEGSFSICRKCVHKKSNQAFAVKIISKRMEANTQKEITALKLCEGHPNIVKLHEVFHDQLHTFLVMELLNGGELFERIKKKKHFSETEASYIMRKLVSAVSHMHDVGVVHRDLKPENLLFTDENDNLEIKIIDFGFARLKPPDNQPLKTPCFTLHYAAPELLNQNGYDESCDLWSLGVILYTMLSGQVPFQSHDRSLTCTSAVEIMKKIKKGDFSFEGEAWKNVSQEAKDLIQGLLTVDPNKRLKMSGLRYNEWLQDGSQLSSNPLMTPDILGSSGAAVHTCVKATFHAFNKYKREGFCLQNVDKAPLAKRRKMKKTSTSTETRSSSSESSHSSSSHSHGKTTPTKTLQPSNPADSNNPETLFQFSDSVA
UniProt Q9H633: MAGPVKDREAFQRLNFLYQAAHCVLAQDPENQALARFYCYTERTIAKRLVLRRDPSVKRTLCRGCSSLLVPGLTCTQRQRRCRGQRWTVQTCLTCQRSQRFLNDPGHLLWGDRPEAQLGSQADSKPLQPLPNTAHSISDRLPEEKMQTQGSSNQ
UniProt Q9Y2B1: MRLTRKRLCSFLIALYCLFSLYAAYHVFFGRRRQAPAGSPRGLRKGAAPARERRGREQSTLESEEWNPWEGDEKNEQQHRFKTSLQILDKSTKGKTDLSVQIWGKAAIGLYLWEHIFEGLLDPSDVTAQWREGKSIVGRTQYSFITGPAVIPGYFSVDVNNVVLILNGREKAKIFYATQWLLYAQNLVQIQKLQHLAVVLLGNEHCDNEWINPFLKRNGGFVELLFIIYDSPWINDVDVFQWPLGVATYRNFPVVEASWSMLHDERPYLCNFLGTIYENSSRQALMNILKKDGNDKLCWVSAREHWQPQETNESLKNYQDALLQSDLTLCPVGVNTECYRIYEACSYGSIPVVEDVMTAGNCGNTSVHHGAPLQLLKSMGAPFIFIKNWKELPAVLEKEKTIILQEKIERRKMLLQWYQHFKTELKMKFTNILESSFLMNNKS
UniProt Q9NYV6: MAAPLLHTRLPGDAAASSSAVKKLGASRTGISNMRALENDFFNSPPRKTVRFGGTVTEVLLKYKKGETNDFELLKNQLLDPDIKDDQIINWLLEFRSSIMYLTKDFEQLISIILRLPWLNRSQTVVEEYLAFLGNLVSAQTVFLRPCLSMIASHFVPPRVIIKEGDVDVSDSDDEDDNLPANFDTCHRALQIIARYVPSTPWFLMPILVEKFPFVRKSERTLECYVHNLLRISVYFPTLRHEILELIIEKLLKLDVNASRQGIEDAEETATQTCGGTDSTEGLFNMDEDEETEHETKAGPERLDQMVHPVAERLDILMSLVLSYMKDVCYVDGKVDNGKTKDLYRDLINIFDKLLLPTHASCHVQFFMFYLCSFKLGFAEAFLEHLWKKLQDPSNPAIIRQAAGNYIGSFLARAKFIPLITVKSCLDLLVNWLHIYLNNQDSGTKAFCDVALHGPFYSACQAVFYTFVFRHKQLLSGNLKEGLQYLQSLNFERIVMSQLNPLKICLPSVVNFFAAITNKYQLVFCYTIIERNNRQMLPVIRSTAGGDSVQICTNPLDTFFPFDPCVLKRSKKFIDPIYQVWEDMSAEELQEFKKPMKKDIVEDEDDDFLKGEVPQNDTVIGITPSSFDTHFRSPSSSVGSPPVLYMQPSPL
UniProt Q9UBS0: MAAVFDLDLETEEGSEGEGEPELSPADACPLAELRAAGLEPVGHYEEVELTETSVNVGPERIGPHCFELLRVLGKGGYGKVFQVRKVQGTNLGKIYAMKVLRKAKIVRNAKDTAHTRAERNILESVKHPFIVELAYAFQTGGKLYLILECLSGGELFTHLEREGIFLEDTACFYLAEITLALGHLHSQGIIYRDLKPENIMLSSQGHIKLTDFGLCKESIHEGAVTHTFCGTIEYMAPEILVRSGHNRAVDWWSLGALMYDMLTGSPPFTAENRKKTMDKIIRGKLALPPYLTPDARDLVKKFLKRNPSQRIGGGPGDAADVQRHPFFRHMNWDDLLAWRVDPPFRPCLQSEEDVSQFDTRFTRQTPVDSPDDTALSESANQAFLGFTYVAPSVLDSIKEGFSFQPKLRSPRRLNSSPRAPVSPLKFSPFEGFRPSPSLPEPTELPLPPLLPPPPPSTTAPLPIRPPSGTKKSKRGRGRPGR
UniProt Q7L099: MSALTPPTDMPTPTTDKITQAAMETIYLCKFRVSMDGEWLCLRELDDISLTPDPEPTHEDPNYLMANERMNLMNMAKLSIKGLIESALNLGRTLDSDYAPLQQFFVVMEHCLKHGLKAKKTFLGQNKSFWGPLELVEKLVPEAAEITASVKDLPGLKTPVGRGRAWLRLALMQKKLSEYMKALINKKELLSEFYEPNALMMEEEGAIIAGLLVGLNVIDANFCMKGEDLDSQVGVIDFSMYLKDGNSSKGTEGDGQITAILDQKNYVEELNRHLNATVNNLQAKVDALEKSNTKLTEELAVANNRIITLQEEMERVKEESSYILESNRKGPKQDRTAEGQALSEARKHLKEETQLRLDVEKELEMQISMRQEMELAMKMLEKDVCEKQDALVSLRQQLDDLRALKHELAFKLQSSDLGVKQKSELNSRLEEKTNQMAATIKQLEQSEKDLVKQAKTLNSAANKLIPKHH
UniProt P60903, whole entry, looked up: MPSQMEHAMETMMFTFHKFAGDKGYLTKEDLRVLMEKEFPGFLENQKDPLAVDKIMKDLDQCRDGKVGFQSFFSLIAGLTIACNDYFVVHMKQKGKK
UniProt Q8WXA3: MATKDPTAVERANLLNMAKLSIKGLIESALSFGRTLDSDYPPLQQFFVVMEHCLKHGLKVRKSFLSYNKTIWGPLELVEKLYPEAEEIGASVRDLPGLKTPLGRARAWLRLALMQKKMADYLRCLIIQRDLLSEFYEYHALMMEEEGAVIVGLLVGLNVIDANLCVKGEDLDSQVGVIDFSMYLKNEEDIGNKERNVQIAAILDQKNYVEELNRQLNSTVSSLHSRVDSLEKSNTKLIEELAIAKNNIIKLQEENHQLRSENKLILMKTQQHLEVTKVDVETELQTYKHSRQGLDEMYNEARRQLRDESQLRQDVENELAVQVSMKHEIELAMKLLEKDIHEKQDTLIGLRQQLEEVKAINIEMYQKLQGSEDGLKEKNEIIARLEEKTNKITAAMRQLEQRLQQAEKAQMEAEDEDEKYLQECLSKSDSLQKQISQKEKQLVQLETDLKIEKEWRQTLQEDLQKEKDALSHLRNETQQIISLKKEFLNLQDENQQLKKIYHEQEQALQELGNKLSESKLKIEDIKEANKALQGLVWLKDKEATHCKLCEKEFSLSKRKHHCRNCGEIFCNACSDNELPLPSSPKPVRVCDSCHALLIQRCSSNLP
UniProt Q8N5L8: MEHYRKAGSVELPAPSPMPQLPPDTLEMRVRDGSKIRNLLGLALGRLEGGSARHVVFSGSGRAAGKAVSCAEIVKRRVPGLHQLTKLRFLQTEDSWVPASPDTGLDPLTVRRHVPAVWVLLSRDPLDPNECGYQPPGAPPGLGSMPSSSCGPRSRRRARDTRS
UniProt Q96FQ6: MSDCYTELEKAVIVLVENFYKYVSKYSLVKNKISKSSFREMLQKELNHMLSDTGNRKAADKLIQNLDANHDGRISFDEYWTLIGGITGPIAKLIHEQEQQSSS

vorinostat = compound: O=C(CCCCCCC(=O)Nc1ccccc1)NO [vorinostat]
How it was run: as §1

silmitasertib = compound: O=C(O)c1ccc2c(c1)nc(Nc1cccc(Cl)c1)c1ccncc12 [silmitasertib]
How it was run: as §1

entospletinib = compound: c1cn2cc(-c3ccc4cn[nH]c4c3)nc(Nc3ccc(N4CCOCC4)cc3)c2n1 [entospletinib]
How it was run: as §1

[2] = compound: O=C1NC(=O)C(c2cnc3ccccn23)=C1c1cn2c3c(cc(F)cc13)CN(C(=O)N1CCCCC1)CC2
How it was run: as §1

Measured: log2 fold change

RPS7, A0A2R8Y623
inactive: [1] 0.031 | vorinostat -0.037 | silmitasertib -0.121 | entospletinib -0.391

RRM1 (UniProt P23921)
inactive: [1] 0.011 | silmitasertib 0.027 | [2] -0.003 | entospletinib -0.013
active: vorinostat -0.227

RUNDC1 (UniProt Q96C34)
inactive: vorinostat -0.335 | silmitasertib -0.157 | [2] -0.026

RTN4R (UniProt Q9BZR6)
inactive: vorinostat 0.351 | silmitasertib -0.246

RSC1A1 (UniProt Q92681)
inactive: [2] -0.127

RTCA (UniProt O00442)
inactive: [1] 0.001 | vorinostat 0.072 | silmitasertib -0.022 | [2] 0.022 | entospletinib -0.009

RRP12 (UniProt Q5JTH9)
inactive: [1] -0.028 | vorinostat 0.016 | silmitasertib -0.007 | [2] 0.023 | entospletinib 0.017

RSL24D1 (UniProt Q9UHA3)
inactive: vorinostat 0.011 | silmitasertib -0.023 | [2] -0.008 | entospletinib -0.029

S100A7A (UniProt Q86SG5)
inactive: vorinostat 0.461 | silmitasertib -0.077 | [2] 0.377

RTN4 isoform 3 (UniProt Q9NQC3)
inactive: entospletinib -0.031

RTL8A (UniProt Q9BWD3)
inactive: [1] 0.008 | [2] 0.022 | entospletinib -0.14

RUVBL1 (UniProt Q9Y265)
inactive: [1] 0.017 | vorinostat 0.092 | silmitasertib -0.019 | [2] 0.037 | entospletinib 0.003

RPP38 (UniProt P78345)
inactive: [1] 0.028 | vorinostat 0.041 | silmitasertib 0 | [2] 0.012 | entospletinib -0.026

RPS18 (UniProt P62269)
inactive: [1] 0.033 | vorinostat 0.081 | silmitasertib 0.019 | [2] 0.007 | entospletinib -0.02

RRM2 isoform 2 (UniProt P31350)
inactive: [1] -0.008 | vorinostat 0.066 | silmitasertib -0.009 | [2] -0.025 | entospletinib 0.047

RPS19BP1 (UniProt Q86WX3)
inactive: [2] -0.026 | entospletinib -0.311

RPL4 (UniProt P36578)
inactive: [1] -0.015 | vorinostat 0.079 | silmitasertib 0.021 | [2] -0.001 | entospletinib 0.007

RXRA (UniProt P19793)
inactive: vorinostat -0.154 | silmitasertib 0.07 | [2] -0.08

RPP30 (UniProt Q5VU11)
inactive: [1] 0.122 | entospletinib 0.053

RPRD2 (UniProt Q5VT52)
inactive: [1] 0.048 | vorinostat -0.133 | silmitasertib 0 | [2] 0.02 | entospletinib -0.006

RPL5 (UniProt P46777)
inactive: [1] -0.014 | vorinostat 0.1 | silmitasertib -0.001 | [2] 0 | entospletinib -0.01

RPTOR (UniProt Q8N122)
active: vorinostat -0.337
inactive: [1] 0.002 | silmitasertib 0.048 | [2] 0.012 | entospletinib -0.01

RPUSD1 (UniProt Q9UJJ7)
inactive: [1] 0.145 | entospletinib -0.008

S100A14 (UniProt Q9HCY8)
inactive: vorinostat -0.199 | silmitasertib -0.101 | entospletinib -0.14

RTTN (UniProt Q86VV8)
inactive: [1] -0.14 | silmitasertib 0.138 | entospletinib 0.053
active: vorinostat -0.607

RPS6KA5 (UniProt O75582)
inactive: [1] -0.025 | vorinostat -0.189 | silmitasertib 0.034 | [2] -0.303 | entospletinib -0.007

RPP21 isoform 4 (UniProt Q9H633)
inactive: [1] 0.138 | vorinostat 0.001 | silmitasertib -0.013 | [2] 0.045 | entospletinib 0.096

RXYLT1 (UniProt Q9Y2B1)
inactive: vorinostat 0.154 | silmitasertib -0.078

RRN3 (UniProt Q9NYV6)
inactive: [1] 0.146 | [2] -0.016 | entospletinib 0.033

RPS6KB2 (UniProt Q9UBS0)
inactive: vorinostat -0.287 | silmitasertib 0.04 | [2] 0.002 | entospletinib -0.025

Copied from the entries so far (two entries):
RXYLT1 (UniProt Q9Y2B1)
inactive: vorinostat 0.154 | silmitasertib -0.078

RRN3 (UniProt Q9NYV6)
inactive: [1] 0.146 | [2] -0.016 | entospletinib 0.033

Later entries.

RUFY3 isoform 2 (UniProt Q7L099)
inactive: vorinostat 0.119 | silmitasertib -0.058 | [2] -0.022

RTN3 isoform 5 (UniProt O95197)
inactive: [1] -0.013 | vorinostat -0.372 | silmitasertib -0.035 | [2] 0.095 | entospletinib 0.123

S100A10 (UniProt P60903)
inactive: vorinostat -0.037 | silmitasertib -0.1 | [2] -0.117

RUFY2 isoform 1 (UniProt Q8WXA3)
inactive: [1] -0.009 | [2] -0.129 | entospletinib -0.014

RWDD3 (UniProt Q9Y3V2)
inactive: [2] -0.033

RPP25L (UniProt Q8N5L8)
inactive: [1] 0.037 | vorinostat 0.13 | silmitasertib -0.131 | [2] 0.003 | entospletinib -0.08

S100A16 (UniProt Q96FQ6)
inactive: [2] 0.085

RYR1 (UniProt P21817)
inactive: vorinostat 0.066 | silmitasertib -0.017 | [2] -0.069 | entospletinib 0.101

RREB1 isoform 2 (UniProt Q92766)
inactive: [1] 0.172 | vorinostat -0.206 | silmitasertib 0.044 | [2] 0.031 | entospletinib -0.363
